According to the supplement of paper PMC12819154, “High-throughput peptide-centric local stability assay extends protein–ligand identification to membrane proteins, tissues and bacteria” (Nature Structural & Molecular Biology, 2025):
The list shows a part of the results. Most entries show no effect beyond the scatter of the controls.

Protein sequences, listed by entry. Tags and fused reporters are not part of them. Lines headed by an entry give the natural chain unless they say otherwise; changes in a name come on top.
UniProt Q9GZM5: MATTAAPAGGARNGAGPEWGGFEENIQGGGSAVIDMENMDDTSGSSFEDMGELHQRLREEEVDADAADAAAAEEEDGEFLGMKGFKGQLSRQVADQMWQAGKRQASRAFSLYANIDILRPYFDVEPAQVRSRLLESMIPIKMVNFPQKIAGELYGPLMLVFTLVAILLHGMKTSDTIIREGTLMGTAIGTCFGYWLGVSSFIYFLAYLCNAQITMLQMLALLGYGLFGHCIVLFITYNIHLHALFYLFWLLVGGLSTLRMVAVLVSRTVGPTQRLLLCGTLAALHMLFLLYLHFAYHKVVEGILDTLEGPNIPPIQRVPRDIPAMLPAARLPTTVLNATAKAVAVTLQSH
UniProt Q9BWT3: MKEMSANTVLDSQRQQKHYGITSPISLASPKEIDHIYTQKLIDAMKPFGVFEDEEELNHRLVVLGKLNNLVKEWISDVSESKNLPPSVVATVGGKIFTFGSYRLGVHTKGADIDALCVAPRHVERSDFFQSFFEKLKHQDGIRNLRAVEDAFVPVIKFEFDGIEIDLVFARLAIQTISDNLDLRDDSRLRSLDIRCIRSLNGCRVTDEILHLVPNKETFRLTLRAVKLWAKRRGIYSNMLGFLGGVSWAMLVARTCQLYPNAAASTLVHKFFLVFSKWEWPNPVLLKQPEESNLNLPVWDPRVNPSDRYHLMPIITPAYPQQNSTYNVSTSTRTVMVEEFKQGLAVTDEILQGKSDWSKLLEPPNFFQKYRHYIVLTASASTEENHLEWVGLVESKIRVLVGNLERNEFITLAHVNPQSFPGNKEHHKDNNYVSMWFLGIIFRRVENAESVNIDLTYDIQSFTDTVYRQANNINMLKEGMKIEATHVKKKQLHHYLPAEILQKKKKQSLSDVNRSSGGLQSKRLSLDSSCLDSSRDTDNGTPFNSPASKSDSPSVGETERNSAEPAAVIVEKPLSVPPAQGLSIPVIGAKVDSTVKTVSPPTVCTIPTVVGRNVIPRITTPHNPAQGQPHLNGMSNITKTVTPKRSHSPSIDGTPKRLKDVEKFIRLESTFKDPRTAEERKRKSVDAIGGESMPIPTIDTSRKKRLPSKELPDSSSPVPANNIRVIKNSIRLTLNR
UniProt Q9BWS9: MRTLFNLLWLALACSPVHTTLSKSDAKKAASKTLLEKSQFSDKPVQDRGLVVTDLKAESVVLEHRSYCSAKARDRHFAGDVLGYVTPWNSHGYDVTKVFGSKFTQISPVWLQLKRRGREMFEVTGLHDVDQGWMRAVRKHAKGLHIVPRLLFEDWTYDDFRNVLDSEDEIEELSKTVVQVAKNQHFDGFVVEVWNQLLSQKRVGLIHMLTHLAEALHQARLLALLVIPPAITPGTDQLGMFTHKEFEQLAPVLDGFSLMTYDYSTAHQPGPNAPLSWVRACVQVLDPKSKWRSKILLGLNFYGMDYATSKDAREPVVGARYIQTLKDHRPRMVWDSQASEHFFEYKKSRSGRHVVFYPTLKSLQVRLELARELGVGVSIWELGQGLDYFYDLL
UniProt Q9H0W5: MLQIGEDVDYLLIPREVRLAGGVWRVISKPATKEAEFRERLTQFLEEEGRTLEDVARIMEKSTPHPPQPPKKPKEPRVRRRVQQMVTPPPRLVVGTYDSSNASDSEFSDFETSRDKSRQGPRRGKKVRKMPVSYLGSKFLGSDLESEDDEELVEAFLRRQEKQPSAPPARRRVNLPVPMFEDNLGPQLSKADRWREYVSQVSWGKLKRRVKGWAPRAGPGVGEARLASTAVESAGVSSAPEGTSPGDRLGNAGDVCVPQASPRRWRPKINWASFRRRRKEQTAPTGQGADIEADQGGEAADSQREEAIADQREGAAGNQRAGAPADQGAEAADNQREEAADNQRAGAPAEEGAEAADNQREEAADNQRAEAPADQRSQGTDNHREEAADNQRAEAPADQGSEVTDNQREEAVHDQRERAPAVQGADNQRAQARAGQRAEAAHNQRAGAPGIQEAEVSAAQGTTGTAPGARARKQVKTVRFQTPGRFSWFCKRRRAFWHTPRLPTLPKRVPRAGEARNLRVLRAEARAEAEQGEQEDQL
UniProt Q9BXS5: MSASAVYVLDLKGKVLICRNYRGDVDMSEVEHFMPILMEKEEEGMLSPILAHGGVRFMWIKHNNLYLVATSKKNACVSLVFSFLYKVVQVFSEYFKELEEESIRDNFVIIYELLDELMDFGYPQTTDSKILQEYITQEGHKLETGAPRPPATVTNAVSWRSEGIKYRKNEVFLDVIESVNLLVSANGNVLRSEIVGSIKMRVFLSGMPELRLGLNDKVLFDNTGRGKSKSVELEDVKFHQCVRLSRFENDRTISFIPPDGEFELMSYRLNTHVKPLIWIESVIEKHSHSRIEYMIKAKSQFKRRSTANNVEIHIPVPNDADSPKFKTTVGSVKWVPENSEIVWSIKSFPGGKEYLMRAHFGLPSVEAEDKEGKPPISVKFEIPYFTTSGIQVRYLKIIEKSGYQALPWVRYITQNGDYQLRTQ
UniProt Q9BX40: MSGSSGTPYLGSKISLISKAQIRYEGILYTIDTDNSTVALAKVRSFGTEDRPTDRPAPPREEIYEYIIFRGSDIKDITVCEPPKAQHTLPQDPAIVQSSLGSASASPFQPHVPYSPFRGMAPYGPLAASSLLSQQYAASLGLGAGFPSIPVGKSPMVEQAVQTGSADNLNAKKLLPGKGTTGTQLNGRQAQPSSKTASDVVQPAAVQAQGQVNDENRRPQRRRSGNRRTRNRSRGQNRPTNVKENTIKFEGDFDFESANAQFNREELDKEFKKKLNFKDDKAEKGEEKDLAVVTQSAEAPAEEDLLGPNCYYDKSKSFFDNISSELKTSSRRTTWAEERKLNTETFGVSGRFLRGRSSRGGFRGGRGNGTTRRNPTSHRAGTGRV
UniProt Q9BUT9: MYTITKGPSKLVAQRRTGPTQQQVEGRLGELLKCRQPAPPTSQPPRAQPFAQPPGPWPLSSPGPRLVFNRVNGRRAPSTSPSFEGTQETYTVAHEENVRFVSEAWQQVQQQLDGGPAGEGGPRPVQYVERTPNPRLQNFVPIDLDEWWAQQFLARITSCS
UniProt Q9BVA0, whole entry: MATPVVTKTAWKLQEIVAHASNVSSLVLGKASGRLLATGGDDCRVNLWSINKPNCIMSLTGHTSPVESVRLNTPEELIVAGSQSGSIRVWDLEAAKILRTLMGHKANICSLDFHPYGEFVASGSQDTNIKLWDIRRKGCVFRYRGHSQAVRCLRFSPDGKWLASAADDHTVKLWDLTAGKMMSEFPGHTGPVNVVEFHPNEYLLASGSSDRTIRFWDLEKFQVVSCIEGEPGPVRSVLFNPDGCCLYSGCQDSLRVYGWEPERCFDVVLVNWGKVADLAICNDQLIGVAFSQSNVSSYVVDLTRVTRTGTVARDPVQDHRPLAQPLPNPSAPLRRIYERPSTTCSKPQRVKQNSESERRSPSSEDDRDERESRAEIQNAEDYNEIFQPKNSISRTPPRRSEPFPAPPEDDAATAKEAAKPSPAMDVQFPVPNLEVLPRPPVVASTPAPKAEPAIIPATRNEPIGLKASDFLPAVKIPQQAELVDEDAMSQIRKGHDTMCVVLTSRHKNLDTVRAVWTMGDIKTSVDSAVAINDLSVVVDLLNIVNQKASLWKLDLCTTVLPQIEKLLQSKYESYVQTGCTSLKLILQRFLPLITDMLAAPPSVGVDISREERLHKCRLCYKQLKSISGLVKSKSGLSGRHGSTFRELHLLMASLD
UniProt Q9H0H5: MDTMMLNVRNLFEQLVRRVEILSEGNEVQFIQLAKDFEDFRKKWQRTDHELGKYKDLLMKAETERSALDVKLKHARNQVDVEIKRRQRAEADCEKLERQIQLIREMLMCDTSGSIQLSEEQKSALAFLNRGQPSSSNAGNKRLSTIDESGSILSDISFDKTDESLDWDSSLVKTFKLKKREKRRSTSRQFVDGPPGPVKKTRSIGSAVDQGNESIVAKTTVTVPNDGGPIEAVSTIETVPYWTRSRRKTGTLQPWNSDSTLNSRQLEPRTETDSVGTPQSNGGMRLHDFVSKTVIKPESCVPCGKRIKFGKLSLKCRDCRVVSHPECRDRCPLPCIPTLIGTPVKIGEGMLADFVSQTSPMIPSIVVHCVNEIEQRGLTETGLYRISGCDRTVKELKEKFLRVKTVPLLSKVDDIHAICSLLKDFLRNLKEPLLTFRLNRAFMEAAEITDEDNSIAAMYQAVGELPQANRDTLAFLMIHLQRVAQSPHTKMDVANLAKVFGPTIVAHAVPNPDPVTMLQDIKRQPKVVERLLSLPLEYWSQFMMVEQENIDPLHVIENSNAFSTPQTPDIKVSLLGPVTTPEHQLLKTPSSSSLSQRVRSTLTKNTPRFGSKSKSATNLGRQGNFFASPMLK
UniProt Q9C0B9: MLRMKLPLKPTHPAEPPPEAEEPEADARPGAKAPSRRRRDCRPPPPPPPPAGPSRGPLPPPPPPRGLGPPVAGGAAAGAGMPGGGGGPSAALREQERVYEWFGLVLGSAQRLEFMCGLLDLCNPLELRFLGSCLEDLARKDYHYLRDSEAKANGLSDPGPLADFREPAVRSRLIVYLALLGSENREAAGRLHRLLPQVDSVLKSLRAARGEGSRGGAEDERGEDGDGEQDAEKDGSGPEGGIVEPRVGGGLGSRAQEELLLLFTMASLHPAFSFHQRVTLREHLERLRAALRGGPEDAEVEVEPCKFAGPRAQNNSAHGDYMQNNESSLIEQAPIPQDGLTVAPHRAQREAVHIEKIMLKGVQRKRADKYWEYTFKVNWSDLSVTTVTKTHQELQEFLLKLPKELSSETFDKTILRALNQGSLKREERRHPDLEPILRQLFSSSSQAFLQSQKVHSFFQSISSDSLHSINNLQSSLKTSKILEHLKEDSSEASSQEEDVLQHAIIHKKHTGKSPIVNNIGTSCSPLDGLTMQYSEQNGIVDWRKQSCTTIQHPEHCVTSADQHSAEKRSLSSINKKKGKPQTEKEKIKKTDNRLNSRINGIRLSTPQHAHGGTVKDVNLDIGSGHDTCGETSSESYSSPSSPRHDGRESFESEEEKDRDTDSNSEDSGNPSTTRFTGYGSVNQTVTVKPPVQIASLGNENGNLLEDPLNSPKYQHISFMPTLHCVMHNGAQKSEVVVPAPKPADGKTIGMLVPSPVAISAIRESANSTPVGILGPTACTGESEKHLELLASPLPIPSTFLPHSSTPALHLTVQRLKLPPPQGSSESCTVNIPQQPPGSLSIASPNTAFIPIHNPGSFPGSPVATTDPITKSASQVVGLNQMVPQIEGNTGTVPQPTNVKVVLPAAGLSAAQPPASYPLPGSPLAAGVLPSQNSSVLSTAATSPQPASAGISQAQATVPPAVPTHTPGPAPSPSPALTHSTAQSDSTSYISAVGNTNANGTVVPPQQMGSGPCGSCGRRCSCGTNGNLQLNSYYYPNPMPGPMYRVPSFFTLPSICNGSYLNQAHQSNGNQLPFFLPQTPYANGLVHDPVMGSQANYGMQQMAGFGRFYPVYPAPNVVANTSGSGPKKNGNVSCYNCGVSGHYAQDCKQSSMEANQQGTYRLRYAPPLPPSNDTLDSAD
UniProt Q9BY27: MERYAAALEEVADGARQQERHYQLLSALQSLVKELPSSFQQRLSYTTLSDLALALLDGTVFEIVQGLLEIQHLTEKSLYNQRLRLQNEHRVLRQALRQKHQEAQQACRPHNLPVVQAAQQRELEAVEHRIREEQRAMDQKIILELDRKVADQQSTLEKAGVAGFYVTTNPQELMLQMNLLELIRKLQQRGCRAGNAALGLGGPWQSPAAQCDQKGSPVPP
UniProt Q9H074: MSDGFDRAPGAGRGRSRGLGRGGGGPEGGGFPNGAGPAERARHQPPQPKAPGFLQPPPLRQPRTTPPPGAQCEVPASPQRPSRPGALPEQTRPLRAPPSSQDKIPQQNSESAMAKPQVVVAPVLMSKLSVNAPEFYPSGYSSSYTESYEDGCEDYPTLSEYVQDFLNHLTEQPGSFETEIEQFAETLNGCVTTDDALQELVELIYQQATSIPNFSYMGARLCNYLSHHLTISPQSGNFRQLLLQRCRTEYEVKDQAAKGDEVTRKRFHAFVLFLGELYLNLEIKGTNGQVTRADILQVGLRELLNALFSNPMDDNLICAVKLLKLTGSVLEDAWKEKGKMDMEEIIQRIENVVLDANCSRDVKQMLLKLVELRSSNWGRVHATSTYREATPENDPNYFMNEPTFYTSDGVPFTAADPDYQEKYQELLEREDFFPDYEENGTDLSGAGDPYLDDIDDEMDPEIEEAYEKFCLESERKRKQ
UniProt Q9BUU2: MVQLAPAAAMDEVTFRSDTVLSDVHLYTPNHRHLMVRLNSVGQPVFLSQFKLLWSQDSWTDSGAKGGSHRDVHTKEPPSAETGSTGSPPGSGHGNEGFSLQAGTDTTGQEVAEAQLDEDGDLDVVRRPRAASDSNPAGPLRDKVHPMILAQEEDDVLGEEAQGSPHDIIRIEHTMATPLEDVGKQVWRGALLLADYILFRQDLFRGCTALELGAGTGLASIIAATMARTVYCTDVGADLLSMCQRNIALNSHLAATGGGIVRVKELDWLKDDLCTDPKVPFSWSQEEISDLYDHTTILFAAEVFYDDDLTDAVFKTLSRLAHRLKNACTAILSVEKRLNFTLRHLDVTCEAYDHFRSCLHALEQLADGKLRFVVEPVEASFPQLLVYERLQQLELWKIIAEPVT

What follows are targets tested with Cc1nc(Nc2ncc(C(=O)Nc3c(C)cccc3Cl)s2)cc(N2CCN(CCO)CC2)n1 [dasatinib] (assay: log2 fold change of tryptic peptide abundance, ligand vs vehicle (limited proteolysis) (log2 ratio); higher = more trypsin-susceptible (destabilized)). Conditions: ligand concentration: 5 uM; sample: K562 cleared lysate.

**Q.** With “TBL1XR1 (peptide sequence: GICIHTLTK, peptide start residue: 432) (UniProt Q9BZK7)” as the target, how does the log2 fold change read?
**A.** The log2 fold change was -0.277.

**Q.** For “YIPF3 (peptide sequence: QVADQMWQAGK, peptide start residue: 92) (UniProt Q9GZM5)”, which log2 fold change is on record?
**A.** The log2 fold change was 0.571.

**Q.** “PAPOLG (peptide sequence: MKEMSANTVLDSQR, peptide start residue: 1) (UniProt Q9BWT3)” was tested. Which log2 fold change did it give?
**A.** The log2 fold change was 0.206.

**Q.** With “MRPL13 (peptide sequence: LWTPPEDYRL, peptide start residue: 169) (UniProt Q9BYD1)” as the target, how does the log2 fold change read?
**A.** Its log2 fold change is -0.252.

**Q.** “CEP250 (peptide sequence: LQDELELTR, peptide start residue: 2211) (UniProt Q9BV73)” was tested. Which log2 fold change did it give?
**A.** The log2 fold change was 0.478.

**Q.** “UniProt Q9C030 (peptide sequence: IIEEAENDLVHQTQSLR, peptide start residue: 215)” was tested. Which log2 fold change did it give?
**A.** The log2 fold change was 0.19.

**Q.** “CHID1 (peptide sequence: SQFSDKPVQDR, peptide start residue: 38) (UniProt Q9BWS9)” was tested. Which log2 fold change did it give?
**A.** Its log2 fold change is 0.488.

**Q.** How did the log2 fold change turn out when “FAM126A (peptide sequence: LTLTTSQSLPKPSSHGLAK, peptide start residue: 426) (UniProt Q9BYI3)” was run?
**A.** The log2 fold change was -0.435.

**Q.** With “UniProt Q9C0A6 (peptide sequence: GTSSSHCRPQENISSR, peptide start residue: 1150)” as the target, how does the log2 fold change read?
**A.** Its log2 fold change is 0.525.

**Q.** How did the log2 fold change turn out when “SPRY4 (peptide sequence: LQHPLTILPIDQVK, peptide start residue: 31) (UniProt Q9C004)” was run?
**A.** Its log2 fold change is 0.059.

**Q.** With “CCDC8 (peptide sequence: PKINWASFRR, peptide start residue: 267) (UniProt Q9H0W5)” as the target, how does the log2 fold change read?
**A.** The log2 fold change was 0.696.

**Q.** Which log2 fold change does the source give for “AP1M1 (peptide sequence: HNNLYLVATSKK, peptide start residue: 62) (UniProt Q9BXS5)” here?
**A.** The log2 fold change was -0.448.

**Q.** “LSM14B (peptide sequence: SGSSGTPYLGSK, peptide start residue: 2) (UniProt Q9BX40)” was tested. Which log2 fold change did it give?
**A.** The log2 fold change was 0.391.

**Q.** For “UniProt Q9BUT9 (peptide sequence: CRQPAPPTSQPPR, peptide start residue: 34)”, which log2 fold change is on record?
**A.** The log2 fold change was 0.0759.

**Q.** Which log2 fold change does the source give for “UniProt Q9BZC1 (peptide sequence: LKVQLKR, peptide start residue: 472)” here?
**A.** Its log2 fold change is -0.313.

**Q.** Which log2 fold change does the source give for “UniProt Q9H0G5 (peptide sequence: EKVIETPENDFKHHR, peptide start residue: 270)” here?
**A.** The log2 fold change was -0.811.

**Q.** For “UniProt Q9GZT3 (peptide sequence: SINQPVAFVR, peptide start residue: 15)”, which log2 fold change is on record?
**A.** The log2 fold change was 0.141.

**Q.** How did the log2 fold change turn out when “KATNB1 (peptide sequence: ASDFLPAVK, peptide start residue: 467) (UniProt Q9BVA0)” was run?
**A.** The log2 fold change was -0.111.

**Q.** With “PUS7L (peptide sequence: KAVHHFVNKK, peptide start residue: 243) (UniProt Q9H0K6)” as the target, how does the log2 fold change read?
**A.** Its log2 fold change is 0.607.

**Q.** Which log2 fold change does the source give for “MRPS26 (peptide sequence: EREVLQLQEEVK, peptide start residue: 154) (UniProt Q9BYN8)” here?
**A.** The log2 fold change was 0.254.

**Q.** Which log2 fold change does the source give for “OSBPL11 (peptide sequence: VVLPTFILEKR, peptide start residue: 386) (UniProt Q9BXB4)” here?
**A.** The log2 fold change was -0.426.

**Q.** With “ATG10 (peptide sequence: YCAEFIK, peptide start residue: 15) (UniProt Q9H0Y0)” as the target, how does the log2 fold change read?
**A.** The log2 fold change was 0.124.

**Q.** With “RACGAP1 (peptide sequence: NLFEQLVR, peptide start residue: 10) (UniProt Q9H0H5)” as the target, how does the log2 fold change read?
**A.** Its log2 fold change is -0.146.

**Q.** “BACH2 (peptide sequence: SVELSGLPSTSQQHFAR, peptide start residue: 350) (UniProt Q9BYV9)” was tested. Which log2 fold change did it give?
**A.** Its log2 fold change is -0.369.

**Q.** Which log2 fold change does the source give for “SLC4A1AP (peptide sequence: KTPGPGKLPPTLSSK, peptide start residue: 751) (UniProt Q9BWU0)” here?
**A.** Its log2 fold change is 0.614.

**Q.** With “UniProt Q9C0B9 (peptide sequence: ANGLSDPGPLADFREPAVR, peptide start residue: 152)” as the target, how does the log2 fold change read?
**A.** The log2 fold change was -0.028.

**Q.** With “MRPL1 (peptide sequence: NEESEKEDA, peptide start residue: 317) (UniProt Q9BYD6)” as the target, how does the log2 fold change read?
**A.** Its log2 fold change is 0.112.

**Q.** For “KIFC1 (peptide sequence: RGTLSGAPAPPTRHDFSFDR, peptide start residue: 357) (UniProt Q9BW19)”, which log2 fold change is on record?
**A.** Its log2 fold change is -0.286.

**Q.** With “UniProt Q9BY27 (peptide sequence: HQEAQQACRPHNLPVVQAAQQR, peptide start residue: 100)” as the target, how does the log2 fold change read?
**A.** The log2 fold change was -0.0661.

**Q.** How did the log2 fold change turn out when “GNB1L (peptide sequence: LCLWDLAEGR, peptide start residue: 92) (UniProt Q9BYB4)” was run?
**A.** The log2 fold change was -0.193.

**Q.** Which log2 fold change does the source give for “OSBPL8 (peptide sequence: FEEQGDFESEKLWQR, peptide start residue: 675) (UniProt Q9BZF1)” here?
**A.** Its log2 fold change is -0.488.

**Q.** With “PAIP1 (peptide sequence: APGFLQPPPLR, peptide start residue: 50) (UniProt Q9H074)” as the target, how does the log2 fold change read?
**A.** Its log2 fold change is 0.17.

**Q.** For “UniProt Q9BUU2 (peptide sequence: AASDSNPAGPLR, peptide start residue: 130)”, which log2 fold change is on record?
**A.** The log2 fold change was 0.16.

**Q.** “WDR61 (peptide sequence: LWDLENGK, peptide start residue: 90) (UniProt Q9GZS3)” was tested. Which log2 fold change did it give?
**A.** Its log2 fold change is 0.105.

**Q.** For “TMUB1 (peptide sequence: AWPHDTIGSLKR, peptide start residue: 119) (UniProt Q9BVT8)”, which log2 fold change is on record?
**A.** Its log2 fold change is -0.134.

**Q.** “PUS3 (peptide sequence: RDCNDTLEEENTNLETPTKR, peptide start residue: 451) (UniProt Q9BZE2)” was tested. Which log2 fold change did it give?
**A.** The log2 fold change was 0.409.

**Q.** With “ING2 (peptide sequence: DLCHMANGIEDCDDQPPKEK, peptide start residue: 162) (UniProt Q9H160)” as the target, how does the log2 fold change read?
**A.** Its log2 fold change is 0.462.
